Measurements reported in patent US8501946B2 (Glaxo Group Limited, priority 2009, dated 2013).
Some of these results come from one statement about several compounds together.

What follows are compounds tested against T1, human recombinant P2X7 receptors (Homo sapiens, UniProt Q99572) (assay: Fluorescent Imaging Plate Reader (FLIPR) Ca Assay (BzATP-induced intracellular calcium increase)). Settings: HEK293 or U-2OS cells expressing human P2X7; 60 μM BzATP; or a slightly modified version of the assay.
T1 construct: expressed in transfected cells
T1 sequence (Q99572 1-595): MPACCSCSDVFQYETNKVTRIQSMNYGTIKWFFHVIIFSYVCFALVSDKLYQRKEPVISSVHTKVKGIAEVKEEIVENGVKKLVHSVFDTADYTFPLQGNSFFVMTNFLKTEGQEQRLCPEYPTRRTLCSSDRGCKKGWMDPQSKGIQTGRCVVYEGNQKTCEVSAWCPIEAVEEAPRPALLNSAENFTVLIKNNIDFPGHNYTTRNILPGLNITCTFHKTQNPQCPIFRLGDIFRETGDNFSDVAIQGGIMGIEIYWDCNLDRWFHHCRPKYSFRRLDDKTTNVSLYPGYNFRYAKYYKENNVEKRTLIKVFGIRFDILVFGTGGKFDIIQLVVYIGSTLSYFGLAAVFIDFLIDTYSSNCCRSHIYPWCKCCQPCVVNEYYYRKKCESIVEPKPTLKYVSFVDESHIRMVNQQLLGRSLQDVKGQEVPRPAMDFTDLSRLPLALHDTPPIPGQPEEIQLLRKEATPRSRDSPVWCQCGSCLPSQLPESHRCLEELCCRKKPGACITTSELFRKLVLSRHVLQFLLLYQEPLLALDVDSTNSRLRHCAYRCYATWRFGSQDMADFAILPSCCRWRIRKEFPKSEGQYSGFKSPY
Format: cell-based

pIC50 in the FLIPR Ca Assay (blocking BzATP responses), ≥ 5:
Cn1cccc1-c1nnc2n1CCN(C(=O)c1cccc(Cl)c1Cl)C2 [Example 48, 7-[(2,3-dichlorophenyl)carbonyl]-3-(1-methyl-1H-pyrrol-2-yl)-5,6,7,8-tetrahydro[1,2,4]triazolo [4,3-a]pyrazine]
Cc1cc(-c2nnc3n2CCN(C(=O)c2cccc(Cl)c2Cl)C3)no1 [Example 49, 7-[(2,3-dichlorophenyl)carbonyl]-3-(5-methyl-3-isoxazolyl)-5,6,7,8-tetrahydro[1,2,4]triazolo [4,3-a]pyrazine]
O=C(c1cccc(C(F)(F)F)c1Cl)N1CCn2c(nnc2-c2ncccn2)C1 [Example 50, 7-{[2-chloro-3-(trifluoromethyl)phenyl]carbonyl}-3-(2-pyrimidinyl)-5,6,7,8-tetrahydro[1,2,4]triazolo [4,3-a]pyrazine]
Cc1ccc(-c2nnc3n2CCN(C(=O)c2cccc(C(F)(F)F)c2Cl)C3)nc1 [Example 51, 7-{[2-chloro-3-(trifluoromethyl)phenyl]carbonyl}-3-(5-methyl-2-pyridinyl)-5,6,7,8-tetrahydro[1,2,4]triazolo [4,3-a]pyrazine]
O=C(c1cccc(C(F)(F)F)c1Cl)N1CCn2c(nnc2-c2ncccc2F)C1 [Example 52, 7-{[2-chloro-3-(trifluoromethyl)phenyl]carbonyl}-3-(3-fluoro-2-pyridinyl)-5,6,7,8-tetrahydro[1,2,4]triazolo [4,3-a]pyrazine]
O=C(c1cccc(C(F)(F)F)c1Cl)N1CCn2c(nnc2-c2cccc(F)n2)C1 [Example 53, 7-{[2-chloro-3-(trifluoromethyl)phenyl]carbonyl}-3-(6-fluoro-2-pyridinyl)-5,6,7,8-tetrahydro[1,2,4]triazolo [4,3-a]pyrazine]
O=C(c1cccc(Cl)c1Cl)N1CCn2c(nnc2-c2ccc(F)cn2)C1 [Example 54, 7-[(2,3-dichlorophenyl)carbonyl]-3-(5-fluoro-2-pyridinyl)-5,6,7,8-tetrahydro[1,2,4]triazolo [4,3-a]pyrazine]
O=C(c1cccc(Cl)c1Cl)N1CCn2c(nnc2-c2cccc(F)n2)C1 [Example 55, 7-[(2,3-dichlorophenyl)carbonyl]-3-(6-fluoro-2-pyridinyl)-5,6,7,8-tetrahydro[1,2,4]triazolo [4,3-a]pyrazine]
Cc1ccnc(-c2nnc3n2CCN(C(=O)c2cccc(C(F)(F)F)c2Cl)C3)c1 [Example 56, 7-{[2-chloro-3-(trifluoromethyl)phenyl]carbonyl}-3-(4-methyl-2-pyridinyl)-5,6,7,8-tetrahydro[1,2,4]triazolo [4,3-a]pyrazine]
O=C(c1cccc(Cl)c1Cl)N1CCn2c(nnc2-c2cccnn2)C1 [Example 57, 7-[(2,3-dichlorophenyl)carbonyl]-3-(3-pyridazinyl)-5,6,7,8-tetrahydro[1,2,4]triazolo [4,3-a]pyrazine]
O=C(c1ccc(F)cc1Cl)N1CCn2c(nnc2-c2cccnn2)C1 [Example 59, 7-[(2-chloro-4-fluorophenyl)carbonyl]-3-(3-pyridazinyl)-5,6,7,8-tetrahydro[1,2,]triazolo [4,3-a]pyrazine]
Cc1ccc(-c2nnc3n2CCN(C(=O)c2cccc(Cl)c2Cl)C3)nc1 [Example 60, 7-[(2,3-dichlorophenyl)carbonyl]-3-(5-methyl-2-pyridinyl)-5,6,7,8-tetrahydro[1,2,4]triazolo [4,3-a]pyrazine]
O=C(c1cccc(Cl)c1Cl)N1CCn2c(nnc2-c2cccnc2)C1 [Example 61, 7-[(2,3-dichlorophenyl)carbonyl]-3-(3-pyridinyl)-5,6,7,8-tetrahydro[1,2,4]triazolo [4,3-a]pyrazine]
O=C(c1cccc(Cl)c1Cl)N1CCn2c(nnc2-c2ccncn2)C1 [Example 62, 7-[(2,3-dichlorophenyl)carbonyl]-3-(4-pyrimdiinyl)-5,6,7,8-tetrahydro[1,2,4]triazolo [4,3-a]pyrazine]
Cn1ccc(-c2nnc3n2CCN(C(=O)c2cccc(Cl)c2Cl)C3)n1 [Example 63, 7-[(2,3-dichlorophenyl)carbonyl]-3-(1-methyl-1H-pyrazol-3-yl)-5,6,7,8-tetrahydro[1,2,4]triazolo [4,3-a]pyrazine]
O=C(c1cccc(Cl)c1Cl)N1CCn2c(nnc2-c2ccc[nH]2)C1 [Example 64, 7-[(2,3-dichlorophenyl)carbonyl]-3-(1H-pyrrol-2-yl)-5,6,7,8-tetrahydro[1,2,4]triazolo [4,3-a]pyrazine]
Cc1ncccc1-c1nnc2n1CCN(C(=O)c1cccc(C(F)(F)F)c1Cl)C2 [Example 65, 7-{[2-chloro-3-(trifluoromethyl)phenyl]carbonyl}-3-(2-methyl-3-pyridinyl)-5,6,7,8-tetrahydro[1,2,4]triazolo [4,3-a]pyrazine]
Cc1cccnc1-c1nnc2n1CCN(C(=O)c1cccc(Cl)c1Cl)C2 [Example 66, 7-[(2,3-dichlorophenyl)carbonyl]-3-(3-methyl-2-pyridinyl)-5,6,7,8-tetrahydro[1,2,4]triazolo [4,3-a]pyrazine]
O=C(c1cccc(Cl)c1Cl)N1CCn2c(nnc2-c2cscn2)C1 [Example 67, 7-[(2,3-dichlorophenyl)carbonyl]-3-(1,3-thiazol-4-yl)-5,6,7,8-tetrahydro[1,2,4]triazolo[4,3-a]pyrazine]
Cn1nccc1-c1nnc2n1CCN(C(=O)c1cccc(C(F)(F)F)c1Cl)C2 [Example 68, 7-{[2-chloro-3-(trifluoromethyl)phenyl]carbonyl}-3-(1-methyl-1H-pyrazol-5-yl)-5,6,7,8-tetrahydro[1,2,4]triazolo [4,3-a]pyrazine]
Cc1cccc(-c2nnc3n2CCN(C(=O)c2cccc(Cl)c2Cl)C3)n1 [Example 69, 7-[(2,3-dichlorophenyl)carbonyl]-3-(6-methyl-2-pyridinyl)-5,6,7,8-tetrahydro[1,2,4]triazolo [4,3-a]pyrazine]
O=C(c1cccc(Cl)c1Cl)N1CCn2c(nnc2-c2ccccc2)C1 [Example 70, 7-[(2,3-dichlorophenyl)carbonyl]-3-phenyl-5,6,7,8-tetrahydro[1,2,4]triazolo [4,3-a]pyrazine]
Cn1ccc(-c2nnc3n2CCN(C(=O)c2ccc(F)cc2Cl)C3)n1 [Example 72, 7-[(2-chloro-4-fluorophenyl)carbonyl]-3-(1-methyl-1H-pyrazol-3-yl)-5,6,7,8-tetrahydro[1,2,4]triazolo [4,3-a]pyrazine]
Cc1ncccc1-c1nnc2n1CCN(C(=O)c1cccc(Cl)c1Cl)C2 [Example 73, 7-[(2,3-dichlorophenyl)carbonyl]-3-(2-methyl-3-pyridinyl)-5,6,7,8-tetrahydro[1,2,4]triazolo [4,3-a]pyrazine]
Cc1ncccc1-c1nnc2n1CCN(C(=O)c1ccc(F)cc1Cl)C2 [Example 74, 7-[(2-chloro-4-fluorophenyl)carbonyl]-3-(2-methyl-3-pyridinyl)-5,6,7,8-tetrahydro[1,2,4]triazolo [4,3-a]pyrazine]
O=C(c1ccccc1Cl)N1CCn2c(nnc2-c2ccccn2)C1 [Example 75, 7-[(2-chlorophenyl)carbonyl]-3-(2-pyridinyl)-5,6,7,8-tetrahydro[1,2,4]triazolo [4,3-a]pyrazine]
O=C(c1ccc(Cl)cc1Cl)N1CCn2c(nnc2-c2ccccn2)C1 [Example 76, 7-[(2,4-dichlorophenyl)carbonyl]-3-(2-pyridinyl)-5,6,7,8-tetrahydro[1,2,4]triazolo [4,3-a]pyrazine]
O=C(c1cccc(C(F)(F)F)c1Cl)N1CCn2c(nnc2-c2ccco2)C1 [Example 77, 7-{[2-chloro-3-(trifluoromethyl)phenyl]carbonyl}-3-(2-furanyl)-5,6,7,8-tetrahydro[1,2,4]triazolo[4,3-a]pyrazine]
O=C(c1c(F)cccc1Cl)N1CCn2c(nnc2-c2ccccn2)C1 [Example 79, 7-[(2-chloro-6-fluorophenyl)carbonyl]-3-(2-pyridinyl)-5,6,7,8-tetrahydro[1,2,4]triazolo [4,3-a]pyrazine]
O=C(c1cccc(Cl)c1)N1CCn2c(nnc2-c2ccccn2)C1 [Example 80, 7-[(3-chlorophenyl)carbonyl]-3-(2-pyridinyl)-5,6,7,8-tetrahydro[1,2,4]triazolo [4,3-a]pyrazine]
